In experiment [1] the target is T1, HD-PTP(1–712;T145K) (human) (UniProt Q9H3S7).
T1 sequence: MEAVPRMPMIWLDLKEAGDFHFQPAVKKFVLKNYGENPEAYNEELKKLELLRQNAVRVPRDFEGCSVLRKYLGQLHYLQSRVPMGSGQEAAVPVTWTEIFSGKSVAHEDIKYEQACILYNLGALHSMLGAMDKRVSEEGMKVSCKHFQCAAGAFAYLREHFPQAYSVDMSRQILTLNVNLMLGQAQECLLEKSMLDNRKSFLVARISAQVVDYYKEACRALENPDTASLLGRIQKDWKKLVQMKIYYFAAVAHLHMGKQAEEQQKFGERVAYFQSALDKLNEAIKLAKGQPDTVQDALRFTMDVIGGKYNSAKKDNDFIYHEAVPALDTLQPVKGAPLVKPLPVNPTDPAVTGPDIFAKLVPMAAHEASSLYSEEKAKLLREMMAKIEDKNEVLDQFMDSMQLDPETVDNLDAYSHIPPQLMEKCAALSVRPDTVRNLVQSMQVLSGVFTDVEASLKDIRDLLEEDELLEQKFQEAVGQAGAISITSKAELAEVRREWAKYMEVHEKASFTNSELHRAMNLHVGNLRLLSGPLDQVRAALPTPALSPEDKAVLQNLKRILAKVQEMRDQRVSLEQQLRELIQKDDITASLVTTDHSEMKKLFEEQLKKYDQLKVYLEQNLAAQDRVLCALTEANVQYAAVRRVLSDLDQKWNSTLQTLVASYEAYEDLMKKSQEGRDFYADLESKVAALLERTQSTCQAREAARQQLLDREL
The experiment in a line: co-IP; HEK293 cells transiently transfected with Flag-tagged HD-PTP(1–712) variants and HA-tagged STAM2 or CHMP4B; lysis in 50 mM Tris-HCl (pH 7.5), 150 mM NaCl, 1% Nonidet P40, 0.5% sodium deoxycholate, 1 mM EDTA; anti-HA agarose or anti-Flag M2 agarose; immunoblotting. In general terms: Immunoblotting shows a protein as a band on a membrane.

Chains of the proteins cited; added tags and fusions are not shown. Residues count along the entry.
UniProt Q8WUM4, residues 1-359: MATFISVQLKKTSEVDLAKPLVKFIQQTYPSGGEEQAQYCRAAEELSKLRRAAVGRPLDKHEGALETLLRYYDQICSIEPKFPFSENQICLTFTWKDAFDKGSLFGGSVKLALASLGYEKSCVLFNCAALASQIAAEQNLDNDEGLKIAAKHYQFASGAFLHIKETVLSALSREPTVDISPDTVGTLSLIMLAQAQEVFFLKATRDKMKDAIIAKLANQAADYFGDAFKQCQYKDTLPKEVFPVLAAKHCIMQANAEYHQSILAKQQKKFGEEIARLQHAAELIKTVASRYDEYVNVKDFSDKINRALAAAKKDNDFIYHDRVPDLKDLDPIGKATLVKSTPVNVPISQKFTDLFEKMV

For experiment [2], the target named is T2, Flag–HD-PTP(1–712) (human) (UniProt Q9H3S7).
T2 sequence: T1 sequence with K145T
The description is as above.

The target of experiment [3] is HD-PTP(1–361) (human) (UniProt Q9H3S7). The experiment in a line: condition: 0.5 mM peptide titrated into 50 μM HD-PTP(1–361); ITC; 0.5 mM peptide titrated into 50 μM protein; iTC200; 2°C as printed; 20 mM Tris-HCl (pH 7.5), 100 mM NaCl; both purified.
For experiment [4] the target is unchanged. The experiment is described as follows: SEC; Superose 6 10/300 GL gel filtration column; mixture of HD-PTP(1–361) and STAM2 fragment; peak fractions analysed by SDS-PAGE and Coomassie staining; both purified.
In experiment [5] the target is T3, HD-PTP(1–361;T145R) (human) (UniProt Q9H3S7).
T3 sequence: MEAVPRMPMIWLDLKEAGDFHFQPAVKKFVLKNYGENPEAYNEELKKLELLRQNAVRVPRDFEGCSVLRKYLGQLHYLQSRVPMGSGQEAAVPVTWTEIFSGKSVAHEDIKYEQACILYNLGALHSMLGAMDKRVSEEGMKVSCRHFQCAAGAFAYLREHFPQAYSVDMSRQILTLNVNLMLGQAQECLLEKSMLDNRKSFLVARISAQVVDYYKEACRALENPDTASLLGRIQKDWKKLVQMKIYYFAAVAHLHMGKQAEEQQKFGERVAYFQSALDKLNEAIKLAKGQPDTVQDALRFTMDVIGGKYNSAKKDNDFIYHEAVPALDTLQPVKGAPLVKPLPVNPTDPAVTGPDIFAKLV
The experiment in a line: condition: 0.5 mM peptide titrated into 50 μM protein; ITC; 0.5 mM peptide titrated into 50 μM protein; iTC200; 2°C as printed; 20 mM Tris-HCl (pH 7.5), 100 mM NaCl; both purified.

Experiment [6] deals with T4, HD-PTP(1–361;T145K) (human) (UniProt Q9H3S7).
T4 sequence: T3 sequence with R145K
The description is as above.

Experiment [7] has as its target Alix(1–359) (human) (UniProt Q8WUM4). Described as above.
The target in experiment [8] is T5, Brox(1–374) (human) (UniProt Q5VW32).
T5 sequence: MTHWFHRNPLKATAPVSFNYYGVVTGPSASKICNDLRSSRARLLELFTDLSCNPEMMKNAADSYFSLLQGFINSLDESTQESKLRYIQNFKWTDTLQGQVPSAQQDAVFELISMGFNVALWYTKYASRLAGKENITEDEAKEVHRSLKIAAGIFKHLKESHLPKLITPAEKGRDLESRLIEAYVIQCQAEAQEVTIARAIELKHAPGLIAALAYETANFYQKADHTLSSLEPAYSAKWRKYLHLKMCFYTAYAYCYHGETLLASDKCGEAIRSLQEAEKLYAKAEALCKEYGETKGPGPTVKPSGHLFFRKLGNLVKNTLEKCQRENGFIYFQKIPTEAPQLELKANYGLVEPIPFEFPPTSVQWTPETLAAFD
Described as above.

Experiment [9] has as its target HD-PTP(1–361) (human) (UniProt Q9H3S7). The experiment is described as follows: condition: 0.5 mM peptide titrated into 50 μM HD-PTP protein; ITC; 0.5 mM peptide titrated into 50 μM protein; iTC200; 2°C as printed; 20 mM Tris-HCl (pH 7.5), 100 mM NaCl; both purified.

For 6 substances, binding results are on record in article PMC4751086.

Changes are numbered by the printed parent chain. No constants are given. Whether binding was seen depends on the method and setting. For some of these results: In cells and extracts the contact can be indirect. Some entries that bind do so weakly or less than the wild type. For some of these results: Sequences can lack the tags named with a protein.

Consider “HA–STAM2(1–370) (from UniProt O75886 1-370) (domain or fragment)”, for which the binding entry is “binds weakly” in [1] and “binds” in experiment [2]. Turning to “HA–STAM2(1–370;Y361A) (from UniProt O75886 1-370) (domain or fragment)”, in experiment [2], the binding entry is given as “no binding”. For the substance “STAM2 peptide of 46-mer (residues 371–416) (from UniProt O75886 371-416)”, the binding result in experiment [3] is listed as “no binding”.

Take “STAM2(260–310) (from UniProt O75886 260-310) (domain or fragment)”: the binding result in [4] is given as “no binding”. Turning to “STAM2(350–370) (from UniProt O75886 350-370) (peptide)”, the binding entry in experiment [5], in experiment [6], in [7] and in [8] was “no binding” in each case. As for “STAM2(350–370) peptide with alanine substitution of Tyr361 (from UniProt O75886 350-370)”, in experiment [9], the binding entry is reported as “no binding”.
